Data from article PMC8437979.
These are yes or no findings as the source states them, for the method shown. Binding seen in cells or lysates may run through a third protein. Some results given as binding are weak or reduced against the parent protein; the word gives no strength. Each block holds one substance with its values, some of them ahead of it.

Sequences of proteins named here, by UniProt entry; tags and fusion partners are left off.
UniProt Q99942: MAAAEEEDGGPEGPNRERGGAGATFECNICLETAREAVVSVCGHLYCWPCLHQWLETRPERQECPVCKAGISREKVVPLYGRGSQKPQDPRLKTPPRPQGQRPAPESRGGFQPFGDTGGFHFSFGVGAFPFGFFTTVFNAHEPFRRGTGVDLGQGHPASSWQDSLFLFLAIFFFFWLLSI
UniProt Q09028: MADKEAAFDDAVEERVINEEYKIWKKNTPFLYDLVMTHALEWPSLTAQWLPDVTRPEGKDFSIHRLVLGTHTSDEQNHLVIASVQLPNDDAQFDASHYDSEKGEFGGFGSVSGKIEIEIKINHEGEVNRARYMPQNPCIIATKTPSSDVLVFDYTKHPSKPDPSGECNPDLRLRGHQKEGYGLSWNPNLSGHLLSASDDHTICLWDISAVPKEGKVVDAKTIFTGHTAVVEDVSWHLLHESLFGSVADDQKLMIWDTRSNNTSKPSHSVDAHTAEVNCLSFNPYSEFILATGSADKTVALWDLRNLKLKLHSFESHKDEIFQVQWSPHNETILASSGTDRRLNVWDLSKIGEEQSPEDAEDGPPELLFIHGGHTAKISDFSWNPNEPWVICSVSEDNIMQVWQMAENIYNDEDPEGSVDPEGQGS

Tests used:
[1] = target: Flag-tagged full-length RNF5 (WT) (UniProt Q99942); experiment: co-IP; HEK293T cells transfected with Flag-tagged RNF5 WT, RM or ∆CT; endogenous RBBP4 detected by western blot; MG132 (10 µm, 4 h) before lysis; TBS-lysis buffer (50 mM Tris-HCl pH 7.5, 150 mM NaCl, 0.5% Nonidet P-40), protein A/G agarose
Myc-RBBP4 = Myc-RBBP4 (UniProt Q09028); experiment: co-IP; reciprocal IP with RBBP4 as bait; HEK293T cells co-expressing Myc-RBBP4 and Flag-tagged RNF5-WT; MG132 (10 µm, 4 h) before lysis; TBS-lysis buffer, protein A/G agarose
[2] = target: Doxycycline-inducible Flag-tagged RNF5 (WT) in MOLM-13 cells (UniProt Q99942); experiment: co-IP; MOLM-13 cells with doxycycline-inducible Flag-tagged RNF5 and endogenous RBBP4; 2 days with or without doxycycline (1 µg/ml); MG132 (10 µm, 4 h) before lysis; TBS-lysis buffer, protein A/G agarose

- binding [1]: binds
Substance: Endogenous RBBP4 (retinoblastoma binding protein 4) of HEK293T cells (from UniProt Q09028 1-425)

- binding (Myc-RBBP4): binds
Substance: Flag-tagged full-length RNF5 (WT) (from UniProt Q99942 1-180) (enzyme)

- binding [2]: binds
Substance: Endogenous RBBP4 (retinoblastoma binding protein 4) of MOLM-13 cells (from UniProt Q09028 1-425)
